Results as given in patent US20030108545A1.
These are yes or no findings as the source states them, for the method shown. Some binding calls cover weakened binding; strength is not graded here.

The chains behind the UniProt entries cited, without tags or fusion partners. Where a name states a change or a piece, a line headed by the entry shows the natural chain unless it says otherwise.
UniProt P35968: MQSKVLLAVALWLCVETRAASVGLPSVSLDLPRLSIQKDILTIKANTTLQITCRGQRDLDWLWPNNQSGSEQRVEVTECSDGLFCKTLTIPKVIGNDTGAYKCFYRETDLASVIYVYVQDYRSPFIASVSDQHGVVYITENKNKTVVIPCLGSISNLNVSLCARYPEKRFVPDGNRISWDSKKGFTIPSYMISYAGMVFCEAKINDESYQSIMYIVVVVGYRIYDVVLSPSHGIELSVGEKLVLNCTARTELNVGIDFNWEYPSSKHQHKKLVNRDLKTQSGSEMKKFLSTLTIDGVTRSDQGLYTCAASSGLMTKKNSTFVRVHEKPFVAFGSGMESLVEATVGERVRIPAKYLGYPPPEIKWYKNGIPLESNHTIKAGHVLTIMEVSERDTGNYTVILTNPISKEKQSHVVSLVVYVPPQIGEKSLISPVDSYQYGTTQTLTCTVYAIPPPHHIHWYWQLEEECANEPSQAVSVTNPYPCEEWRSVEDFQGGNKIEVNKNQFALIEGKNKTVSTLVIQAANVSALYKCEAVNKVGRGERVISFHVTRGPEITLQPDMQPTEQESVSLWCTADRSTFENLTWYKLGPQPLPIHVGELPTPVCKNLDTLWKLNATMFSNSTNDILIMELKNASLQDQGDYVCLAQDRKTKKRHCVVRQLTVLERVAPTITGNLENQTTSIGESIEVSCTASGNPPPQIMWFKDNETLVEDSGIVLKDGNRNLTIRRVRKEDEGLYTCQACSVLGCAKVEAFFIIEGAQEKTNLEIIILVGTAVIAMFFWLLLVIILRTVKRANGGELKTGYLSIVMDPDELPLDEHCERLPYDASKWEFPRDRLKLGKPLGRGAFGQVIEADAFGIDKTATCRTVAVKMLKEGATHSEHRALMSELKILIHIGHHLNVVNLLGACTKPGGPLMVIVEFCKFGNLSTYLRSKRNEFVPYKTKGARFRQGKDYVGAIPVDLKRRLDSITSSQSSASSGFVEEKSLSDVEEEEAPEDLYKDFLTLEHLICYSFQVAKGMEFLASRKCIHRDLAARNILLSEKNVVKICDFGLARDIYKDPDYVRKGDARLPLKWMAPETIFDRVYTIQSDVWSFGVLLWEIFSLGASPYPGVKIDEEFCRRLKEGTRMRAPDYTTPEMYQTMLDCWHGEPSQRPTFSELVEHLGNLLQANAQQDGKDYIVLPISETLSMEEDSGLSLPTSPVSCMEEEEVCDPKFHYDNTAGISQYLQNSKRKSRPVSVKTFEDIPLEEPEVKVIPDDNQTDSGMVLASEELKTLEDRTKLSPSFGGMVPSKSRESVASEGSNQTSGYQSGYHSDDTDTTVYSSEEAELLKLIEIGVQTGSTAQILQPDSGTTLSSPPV
UniProt P05187: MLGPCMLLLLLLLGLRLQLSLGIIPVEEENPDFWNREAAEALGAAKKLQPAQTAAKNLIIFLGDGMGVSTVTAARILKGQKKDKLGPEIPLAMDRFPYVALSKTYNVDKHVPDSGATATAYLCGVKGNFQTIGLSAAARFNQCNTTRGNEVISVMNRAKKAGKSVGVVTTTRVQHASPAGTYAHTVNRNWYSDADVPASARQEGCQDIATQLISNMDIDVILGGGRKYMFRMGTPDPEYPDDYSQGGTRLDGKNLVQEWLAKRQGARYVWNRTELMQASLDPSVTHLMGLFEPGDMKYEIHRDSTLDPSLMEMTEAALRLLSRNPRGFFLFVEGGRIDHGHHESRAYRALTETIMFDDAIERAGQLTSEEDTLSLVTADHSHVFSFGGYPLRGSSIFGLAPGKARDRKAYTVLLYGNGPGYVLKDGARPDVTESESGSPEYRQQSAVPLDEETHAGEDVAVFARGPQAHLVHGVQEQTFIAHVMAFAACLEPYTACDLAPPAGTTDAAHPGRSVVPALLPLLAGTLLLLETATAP

B1: human anti-KDR (VEGFR-2) Fab D2C6 (Fab, V domains shown)
VH: EVQLVQSGGGLVKPGGSLRLSCAASGFTFSSYSMNWVRQAPGKGLEWVSSISSSSSYIYYADSVKGRFTISRDNAKNSLYLQMNSLRAEDTAVYYCARVTDAFDIWGQGTMVTVSS
VL: EIVMTQSPATLSLSPGERATLSCRASQSVSSYLAWYQQKPGQAPRLLIYDSSNRATGIPARFSGSGSGTDFTLTISSLEPEDFATYYCLQHNTFPPTFGQGTKVEIK
B2: human anti-KDR (VEGFR-2) Fab D1H4 (Fab, V domains shown)
VH: EVQLVQSGGGLVKPGGSLRLSCAASGFTFSSYSMNWVRQAPGKGLEWVSSISSSSSYIYYADSVKGRFTISRDNAKNSLYLQMNSLRAEDTAVYYCARVTDAFDIWGQGTMVTVSS
VL: QSALTQPASLSGSPGQSITISCAGTTTDLTYYDLVSWYQQHPGQAPKLVIYDGNKRPSGVSNRFSGSKSGNTASLTISGLQAEDEADYYCNSYVSSRFYVFGTGTKVTVL
B3: human anti-KDR (VEGFR-2) Fab D2H2 (Fab, V domains shown)
VH: EVQLVQSGGGLVKPGGSLRLSCAASGFTFSSYSMNWVRQAPGKGLEWVSSISSSSSYIYYADSVKGRFTISRDNAKDSLYLQMNSLRAEDTAVYYCARVTDAFDIWGQGTMVTVSS
VL: DIQLTQSPSSVSASVGDRVTITCRASQGISSRLAWYQQKPGKAPKLLIYAASSLQTGVPSRFSGSGSGTDFTLTISSLQPEDFATYYCQQANRFPPTFGPGTKVDIK

biological target: soluble fusion protein KDR-AP (KDR (VEGFR-2) extracellular domain fused to human placental alkaline phosphatase) (human) (UniProt P35968+P05187); experiment: epitope-mapping ELISA, AP fusions captured by anti-AP antibody

Q: B1 was tested. Which binding did it give?
A: binds

Q: For B2, which binding is on record?
A: binds

Q: With B3 as the binder, how does the binding read?
A: binds
